Test results published in patent US20100048488A1, “IMMUNOMODULATORY PEPTIDES” (Syntonix Pharmaceuticals, Inc., priority 2008, published 2010).

Protein sequences, listed by entry. Tags and fused reporters are not part of them. Residues count along the entry.
UniProt P55899, 24-297 limits assumed: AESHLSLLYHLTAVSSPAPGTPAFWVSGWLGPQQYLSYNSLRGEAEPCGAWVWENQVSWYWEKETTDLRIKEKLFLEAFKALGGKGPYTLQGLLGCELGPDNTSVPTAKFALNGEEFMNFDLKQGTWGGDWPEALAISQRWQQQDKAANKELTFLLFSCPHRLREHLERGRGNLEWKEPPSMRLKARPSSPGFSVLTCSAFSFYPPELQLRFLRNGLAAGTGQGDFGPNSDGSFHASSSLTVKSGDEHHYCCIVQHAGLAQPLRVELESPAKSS

Target: T1, soluble human FcRn (shFcRn) (Homo sapiens, UniProt P55899)
T1 construct: made in house; host or cells: Chinese hamster ovary (CHO) cells, glutamine synthetase expression system
Assay: Peptide-IgG competition ELISA
Format: binding
Procedure: The wells were coated with 100 μl/well of 1 μg/ml biotinylated-shFcRn in Buffer A. The plate was sealed and incubated at 37° C. for 2 hours. Afterwards, the plate was washed with 200 μl/well of Buffer B (Buffer B: 100 mM MES pH 6, 150 mM NaCl, 0.5% BSA IgG-free (Jackson ImmunoResearch, West Grove, Pa.), 0.05% Tween-20). […] To allow for mixing, the plate was rocked for 2 minutes, sealed and incubated at 37° C. for 2 hours. […] The plate was covered, incubated for 30 minutes at room temperature and washed 4 times with 200 μl/well of ice-cold buffer B. SureBlue TMB substrate solution (100 μl/well, KPL, Gaithersburg, Md.) was added and the plate was allowed to incubate at room temperature until color developed, which took 5 to 10 minutes. Once color developed, 100 μl/well of TMB stop solution (KPL, Gaithersburg, Md.) was added and the absorbance was measured at 450 nm.

IC50: 2.4 nM
Structure (SMILES): CC(C)C[C@H]1C(=O)N[C@@H](Cc2ccc(O)cc2)C(=O)N2CCC[C@H]2C(=O)N[C@H](C(N)=O)CSSC(C)(C)[C@H](NC(=O)[C@H](Cc2ccccc2)NC(=O)[C@H](CCCNC(=N)N)NC(=O)CCC(=O)N[C@@H](CCCNC(=N)N)C(=O)N[C@@H](Cc2ccccc2)C(=O)N[C@@H]2C(=O)N[C@@H]([C@@H](C)O)C(=O)NCC(=O)N[C@@H](Cc3c[nH]cn3)C(=O)N[C@@H](Cc3ccccc3)C(=O)NCC(=O)N(C)CC(=O)N(C)[C@@H](CC(C)C)C(=O)N[C@@H](Cc3ccc(O)cc3)C(=O)N3CCC[C@H]3C(=O)N[C@H](C(N)=O)CSSC2(C)C)C(=O)N[C@@H]([C@@H](C)O)C(=O)NCC(=O)N[C@@H](Cc2c[nH]cn2)C(=O)N[C@@H](Cc2ccccc2)C(=O)NCC(=O)N(C)CC(=O)N1C [Peptide No. 283]
